Results published in PubChem BioAssay AID1347076 (National Center for Advancing Translational Sciences (NCATS), 2019).
In all, about 400,000 compounds went through this assay and about 13,000 (3.2%) were called active. Inconclusive means that the source gave no clear call. Such entries were picked first, then a sample of the others. Calls come from the whole dose curve; as a rule, active = well fitted cell-killing curve with a large enough effect; inconclusive = small, poorly fitted or top-dose-only effect, or effect the other way; inactive = flat fitted curve, though single readings scatter. Potencies of inconclusive entries are doubtful fits and often do not repeat.

Test: qHTS assay for MDR1-selective chemotherapeutics: Primary screen using the drug-selected MDR subline cells KB-V1; note: nearly all actives have a fitted effect of over 60% in size
Conditions: KB-V1 MDR cells viability, CellTiter-Glo, 72 h; activity change, negative = cytotoxicity: at 46.1 µM (top of the series)
How it was run: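 Luminescent ATP read-out (CellTiter-Glo, 10 min) measures survival of drug-selected KB-V1 MDR cells after 72 h, 37 degrees C compound exposure. Medium: phenol-red-free DMEM, 10% FBS. Values from fitted concentration-response curves.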
% is set by controls: 0 for no effect and ±100 for the full control effect; potency is the fitted concentration of half-maximal effect.

Row | Compound | Potency | activity change, negative = cytotoxicity
1 | O=C(Nc1cccc(S(=O)(=O)N2CCOCC2)c1)C12CC3CC(CC(C3)C1)C2 | inconclusive: 20.6 µM [cytotoxic, single point] | –
2 | c1ccc(-n2cnc3cc(NCc4ccccn4)ccc32)cc1 | inactive | –
3 | CCc1ccc(OCCCCn2c(CCNC(=O)C3CCCCC3)nc3ccccc32)cc1 | inactive | –
4 | CCOC(=O)N1CCN(CC(O)COc2ccccc2C(C)C)CC1 (centres undefined) | inconclusive: 6.51 µM [rising, full curve, poor fit] | –
5 | Cc1ccc(C(=O)N2CCN(Cc3nc4sc5c(c4c(=O)[nH]3)CCCC5)CC2)cc1 | active: 16.4 µM | –
6 | O=C(CSc1nnc(-c2cccs2)n1-c1ccccc1)N1CCOCC1 | inactive | –
7 | CN(C)C(=O)C1(c2ccccc2)CCN(S(=O)(=O)c2ccccc2)CC1 | active: 20.6 µM | –
8 | CCCN(c1ccc(C(C)C)cc1)S(=O)(=O)c1ccc2c(c1)oc(=O)n2CC(=O)OCC | inactive | –
9 | O=C(Nc1ccncc1)c1ccc(F)cc1 | inconclusive: 14.6 µM [rising, partial curve] | –
10 | CS(=O)(=O)N(CC(=O)N1CCCC1)c1ccc(OCc2ccccc2)cc1 | active: 14.6 µM | –
11 | CCOC(=O)c1c(C)[nH]c(C(=O)COC(=O)c2oc3ccc(OC)cc3c2C)c1C | active: 10.3 µM | –
12 | COc1ccccc1N1CCN(C(=O)c2cc(S(=O)(=O)N3CCC(C)CC3)cn2C)CC1 | inactive | –
13 | CCOC(=O)c1ccc(N=c2sc(C(=O)OC)cc(=O)n2Cc2ccco2)cc1 | inconclusive: 18.4 µM [cytotoxic, single point] | –
14 | COc1ccc(C(=O)Cn2nnc(-c3ccc(N4CCOCC4)cc3)n2)cc1OC | inconclusive: 5.8 µM [cytotoxic, full curve] | –
15 | Cc1noc2ncnc(Sc3ccc(Cl)cc3)c12 | inactive | –
16 | C(=N\Nc1ncnc2ccccc12)/c1ccccc1 | inconclusive: 29.1 µM [cytotoxic, single point] | –
17 | Cn1c(=O)c2c(ncn2CC(=O)Nc2nc(-c3ccccc3Cl)cs2)n(C)c1=O | active: 20.6 µM | –
18 | O=C(CCN1CCOCC1)Nc1cc(C(=O)Nc2ccc(Cl)cc2)ccc1N1CC2CC(C1)c1cccc(=O)n1C2 (centres undefined) | inconclusive: 16.4 µM [rising, single point] | –
19 | COc1ccc(CNC(=O)C2CCN(S(=O)(=O)c3ccc(SC)cc3)CC2)cc1 | inconclusive: 29.1 µM [cytotoxic, single point] | –
20 | COc1cccc(/C=C2\SC(=O)N(CC(=O)NC3CCS(=O)(=O)C3)C2=O)c1 (centres undefined) | inconclusive: 9.2 µM [rising, partial curve, poor fit] | –
21 | CCOC(=O)Cn1c(=O)n(CC2CCCO2)c2nc(-c3ccc(C(C)C)cc3)nc(C(N)=O)c21 (centres undefined) | inconclusive: 4.61 µM [cytotoxic, partial curve] | –
22 | O=C(O)C1=C[C@@H](c2ccc(C(F)(F)F)cc2)C[C@@H](OCc2ccc(CO)cc2)O1 | active: 18.4 µM | –
23 | O=C(O)c1cccc(Nc2nc3ccccc3nc2NS(=O)(=O)c2ccc(F)cc2)c1 | inconclusive: 6.51 µM [rising, partial curve, poor fit] | –

Row | Compound | Potency | activity change, negative = cytotoxicity
24 | CCCCCCCCNC(=O)c1cnsn1 | inactive | –
25 | O=C(Nc1nnc(S(=O)(=O)Nc2ccccc2)s1)C1CCCCC1 | inconclusive: 16.4 µM [rising, single point] | –
26 | CN(CC(=O)Nc1ccccc1C(=O)NC1CC1)Cc1ccccc1F | inconclusive: 16.4 µM [cytotoxic, single point] | –
27 | CCOC(=O)c1ccc(N2C(=O)c3n[nH]c(C)c3C2c2ccc(OCC)cc2)cc1 (centres undefined) | inconclusive: 29.1 µM [cytotoxic, single point] | –
28 | CCC(CC)C(=O)c1c[nH]c(C(=O)NCc2ccccc2)c1 | inconclusive: 0.82 µM [cytotoxic, full curve] | –
29 | O=C(CSc1ncccc1-c1nc2ccccc2[nH]1)N1CCCCC1 | active: 5.17 µM | –
30 | CC(C)(C)c1ccc(C(=O)N/C(=C\c2cccs2)C(=O)N2CCOCC2)cc1 | inconclusive: 18.4 µM [cytotoxic, single point] | –
31 | COc1ccc(CNCCCn2cnc3c(SC)ncnc32)cc1 | – | inconclusive: 65.8%
32 | COc1ccc(NCC(=O)N/N=C/c2c(C)nn(Cc3ccccc3)c2Cl)cc1 | active: 11.6 µM | –
33 | Cc1cc(-n2c(C)cc(C(=O)CSc3ncnc4ccccc34)c2C)no1 | inconclusive: 3.66 µM [cytotoxic, full curve] | –
34 | CCN(CC)CCNc1cccc2sc3ccccc3c(=O)c12 | inconclusive: 16.4 µM [cytotoxic, partial curve, poor fit] | –
35 | O=C(CCC1N=C2c3ccccc3N=C(SCc3cccc(F)c3)N2C1=O)NCc1cccs1 (centres undefined) | inconclusive: 16.4 µM [cytotoxic, single point] | –
36 | Cc1ccc(S(=O)(=O)N2CCOC23CCN(C(=O)C(=O)NCc2ccccc2)CC3)cc1 | inconclusive: 16.4 µM [cytotoxic, partial curve] | –
37 | O=C(Cc1ccc(N2CCNC2=O)cc1)N1CCCC(Nc2cccc(F)c2)C1 (centres undefined) | inconclusive: 25.9 µM [cytotoxic, single point] | –
38 | Cc1ccc(S(=O)(=O)CCC(=O)OCc2ccccc2)cc1 | inconclusive: 23.1 µM [rising, single point] | –
39 | O=C(Cn1ncc2c3ccccc3n(Cc3ccccc3)c2c1=O)N1CCN(c2ncccn2)CC1 | active: 5.17 µM | –
40 | O=C(N1CCOCC1)N1CCC(n2nnc3ccccc32)CC1 | inconclusive: 23.1 µM [cytotoxic, partial curve, poor fit] | –
41 | OC[C@H]1O[C@@H](c2nc(-c3ccccc3Br)no2)[C@H](O)[C@@H]1O | inconclusive: 11.6 µM [cytotoxic, partial curve, poor fit] | –
42 | O=C(C1CCC1)N1CCc2cc(S(=O)(=O)N3CCN(c4ccccn4)CC3)ccc21 | inconclusive: 8.2 µM [cytotoxic, partial curve, poor fit] | –
43 | COc1ccc(-c2nn(C)c(=O)c3ccccc23)cc1NS(C)(=O)=O | inconclusive: 29.1 µM [cytotoxic, single point] | –
44 | Cc1ccc(Cl)cc1N1CCN(C(=O)CCNS(=O)(=O)c2ccc3c(c2)CCN3C(=O)C2CC2)CC1 | inconclusive: 23.1 µM [cytotoxic, single point] | –
45 | C1CCN(CCCNC2C3CC4CC(C3)CC2C4)C1 (centres undefined) | inactive | –
46 | COc1ccc(OC)c(NC(=O)c2cc(S(=O)(=O)NCCc3ccc(Cl)cc3)ccc2F)c1 | inactive | –

A second format for some results above:
Row	Compound	Potency	activity change, negative = cytotoxicity
32	COc1ccc(NCC(=O)N/N=C/c2c(C)nn(Cc3ccccc3)c2Cl)cc1	active: 11.6 µM	–
33	Cc1cc(-n2c(C)cc(C(=O)CSc3ncnc4ccccc34)c2C)no1	inconclusive: 3.66 µM [cytotoxic, full curve]	–
34	CCN(CC)CCNc1cccc2sc3ccccc3c(=O)c12	inconclusive: 16.4 µM [cytotoxic, partial curve, poor fit]	–

Additional entries

Row | Compound | Potency | activity change, negative = cytotoxicity
47 | CCC(C)NC(=O)Cn1c(=O)n(-c2ccc(C)c(C)c2)c(=O)c2c3c(sc21)CCCCC3 (centres undefined) | inconclusive: 29.1 µM [rising, single point] | –
48 | COC1=CC(=O)C=C(OC)C1(O)CC(C)=O | inactive | –
49 | CCCNC(=O)C(Cc1ccccc1C)NC(=O)c1ccc(C(F)(F)F)cc1 (centres undefined) | inactive | –
50 | C=C(C)C1CC=C(C)/C(=N/NC(=O)COc2cccc3ccccc23)C1 (centres undefined) | inconclusive: 6.51 µM [cytotoxic, partial curve] | –
51 | O=C(CCCSc1ccccc1)Nc1nc(-c2ccco2)c(-c2ccco2)s1 | inconclusive: 29.1 µM [cytotoxic, single point] | –
52 | CC(=O)c1cc(Cl)ccc1OC(=O)c1ccco1 | inactive | –
53 | Nc1cc(=O)[nH]c(N)n1 | inactive | –
54 | CCOc1ccc(CCNC(=O)c2sc3ncccc3c2-n2cccc2)cc1OCC | inconclusive: 23.1 µM [cytotoxic, partial curve, poor fit] | –
55 | O=C(CSc1n[nH]c(-c2ccc(Cl)cc2Cl)n1)Nc1ccccn1 | active: 16.4 µM | –
56 | COc1cc(SC)ccc1C(=O)Nc1ccccc1C#N | inconclusive: 4.11 µM [cytotoxic, full curve] | –
57 | COC(=O)c1ccc(-c2nc3cc(NC(C)=O)ccc3o2)cc1 | inconclusive: 13 µM [rising, single point] | –
58 | O=C(CSc1nnc(CCc2ccccc2)n1-c1ccc(Cl)cc1)c1ccccc1 | inconclusive: 9.2 µM [cytotoxic, partial curve, poor fit] | –
59 | COc1cc(CCC(=O)Nc2ccc(Br)c(C(F)(F)F)c2)cc(OC)c1OC | inconclusive: 9.2 µM [cytotoxic, partial curve] | –
60 | COc1ccc(Cl)cc1C(=O)NNC(=S)NC(=O)c1cc(-c2ccccc2)nc2ccccc12 | inconclusive: 20.6 µM [cytotoxic, single point] | –
61 | Cc1ccc(-c2ccc(C3=CC(=O)CC(C)(C)C3=O)cc2)cc1 | inactive | –
62 | CCn1cc(C(=O)NCCCN2CCCC(C)C2)c(=O)c2cc(S(=O)(=O)N(C)C3CCCCC3)ccc21 (centres undefined) | inconclusive: 2.06 µM [rising, single point] | –
63 | CC(C)Cn1c(=O)c2ccccc2n2c(SCC(=O)N3c4ccccc4CC3C)nnc12 (centres undefined) | active: 1.84 µM | –
64 | COCCOC(=O)C1=C(C)NC2=C(C(=O)CC(C)(C)C2)C1c1cccnc1 (centres undefined) | inconclusive: 29.1 µM [rising, single point] | –
65 | Nc1nc2ccccc2n1C(=O)c1ccccc1 | inconclusive: 16.4 µM [cytotoxic, single point] | –
66 | O=C(Nc1ccc2c(c1)OCO2)c1noc2c1CCCC2 | inconclusive: 1.16 µM [cytotoxic, full curve] | –
67 | O=C(O)c1cccc(NC(=O)c2ccc3c(c2)C(=O)N(c2ccccc2)C3=O)c1 | inconclusive: 20.6 µM [rising, single point] | –
68 | CCN(CC)S(=O)(=O)c1ccc(/C(O)=C2/C(=O)C(=O)N(CCOC)C2c2ccccc2)cc1 (centres undefined) | inconclusive: 29.1 µM [rising, single point] | –
69 | CCC(C)(C(=O)NC1CCCCC1)N(Cc1ccco1)C(=O)Cc1cccs1 (centres undefined) | inconclusive: 7.31 µM [cytotoxic, partial curve, poor fit] | –

Whole records, quoted from the list:
O=C(CCN1CCOCC1)Nc1cc(C(=O)Nc2ccc(Cl)cc2)ccc1N1CC2CC(C1)c1cccc(=O)n1C2 (centres undefined) as listed: Potency: inconclusive: 16.4 µM [rising, single point]
Cc1ccc(-c2ccc(C3=CC(=O)CC(C)(C)C3=O)cc2)cc1 as listed: Potency: inactive
O=C(Cn1ncc2c3ccccc3n(Cc3ccccc3)c2c1=O)N1CCN(c2ncccn2)CC1 as listed: Potency: active: 5.17 µM
